We go through 21 molecules from the supplement of paper PMC3682954.

SMILES strings stand for the structures. Counter-ions that a name gives are not always drawn. ± gives the standard deviation of the averaged measurements. The list shows a part of the results. Most values come without repeats; read them as rough.

The test system of this test is RAW 264.7. The experiment in a line: cell viability (MTT) relative to vehicle control; higher = more viable cells. The note with it: stimulus: HMGB1 5 ug/ml, 18 h.
Setting [1] is: compound concentration: 1 ug/ml.

In general, cell viability refers to a read-out of living cells in per cent, often relative to untreated cells. In the case of `CO[C@H]1CC=C2CCN3CCC4=C(CC(=O)OC4)[C@]23C1` [Dihydro-beta-erythroidine hydrobromide], the cell viability (compound concentration: 3 uM) came to 96.5%.

With `C[C@]12CCC(=O)C=C1CC[C@@H]1[C@@H]2C(=O)C[C@]2(C)C(=O)CC[C@@H]12` [Adrenosterone], the cell viability (compound concentration: 3 uM) worked out at 103%.

On to `COc1cc2c(cc1OC)-c1c(OC)c(OC)c(CO)c3c1C(C2)N(C)CC3` (stereo unspecified), for which the cell viability under setting [1] was found to be 84.5%.

For `Cc1[nH]c2ccc(O)cc2c1CCN` [2-Methyl-5-hydroxytryptamine maleate], the cell viability (compound concentration: 3 uM) turned out to be 114%.

On to `C=CCN1CCc2cccc3c2[C@H]1Cc1ccc(O)c(O)c1-3` [R(-)-N-Allylnorapomorphine hydrobromide], for which, under “compound concentration: 3 uM”, the cell viability was 98.2%.

Take `COc1ccc(C(=O)N2CCCC2=O)cc1`: under “compound concentration: 3 uM”, the cell viability turned out to be 110%.

Take `COc1ccc(C(=O)N2CCCC2=O)cc1` [Aniracetam]: for the setting “compound concentration: 3 uM”, the cell viability came out at 105 ± 4.8%.

`O=C1/C(=C/c2ccccc2)C[C@@]2(O)[C@H]3Cc4ccc(O)c5c4[C@@]2(CCN3CC2CC2)[C@H]1O5` [BNTX maleate salt hydrate]: for the setting “compound concentration: 3 uM”, the cell viability turned out to be 79.3%.

With `CCCCCCCCCCCCCC(=O)O[C@@H]1[C@@H](C)[C@@]2(O)[C@@H](C=C(CO)C[C@]3(O)C(=O)C(C)=C[C@@H]23)[C@@H]2C(C)(C)[C@]12OC(C)=O` [Phorbol 12-myristate 13-acetate], the cell viability (compound concentration: 3 uM) was found to be 101%.

For the molecule `CCCCCCCCCCCCCC(=O)O[C@@H]1[C@@H](C)[C@@]2(O)[C@@H](C=C(CO)C[C@]3(O)C(=O)C(C)=C[C@@H]23)[C@@H]2C(C)(C)[C@]12OC(C)=O`, the cell viability (compound concentration: 3 uM) amounted to 92%.

Regarding `CC(C)(C)[C@]1(O)CC2OC(=O)CC23C(=O)OC2OC(=O)[C@H](O)C231` (single isomer, unassigned; (-)) [(-)-Bilobalide], the cell viability under setting [1] came out at 91.1%.

`CCS(=O)(=O)Nc1cccc(C(=C2CCCCC2)c2cnc[nH]2)c1`: the cell viability (compound concentration: 3 uM) stood at 100%.

With `CC[C@@]1(O)C[C@H](O)c2c(cc3c(c2O)C(=O)c2c(O)ccc(O)c2C3=O)[C@H]1C(=O)OC`, the cell viability (compound concentration: 3 uM) is 84.3%.

Take `O=C(O)CCCc1ccc(N(CCCl)CCCl)cc1`: the cell viability (compound concentration: 3 uM) was determined as 103 ± 8.6%.

Consider `O=C(O)CCCc1ccc(N(CCCl)CCCl)cc1` [Chlorambucil], for which the cell viability (compound concentration: 3 uM) came to 87.3 ± 4.2%.

On to `NCC(O)c1cc(O)c(O)cc1F` (stereo unspecified) [6-Fluoronorepinephrine hydrochloride], for which the cell viability (compound concentration: 3 uM) was found to be 91.9%.

For `CC[C@@H](C(N)=O)N1CCCC1=O`, the cell viability (compound concentration: 3 uM) is 85.4%.

On to `CC[C@@H](C(N)=O)N1CCCC1=O` [Levetiracetam], for which the cell viability (compound concentration: 3 uM) was found to be 107 ± 6.2%.

In the case of `C/C=C1/CN2CC[C@]34C(=C(C=O)[C@H]1C[C@H]23)Nc1ccccc14`, the cell viability under setting [1] is 104%.

As for `CC(N)Cc1c[nH]c2ccc(OCc3cccs3)cc12` (stereo unspecified), for the setting “compound concentration: 3 uM”, the cell viability stood at 99.2%.

As for `COc1ccc2[nH]c3c(c2c1)CCN=C3C` [Methoxy-6-harmalan], the cell viability (compound concentration: 3 uM) worked out at 102%.
